Some of the results follow. No stated cut-off is given here; in the data, active = 2 or more and inactive = the rest. Most values lie within the scatter of the assay; repeated measurements hardly agree.
Tested on: Lgr5 (MarsCy1-Lgr5-EGFP, U2OS)
Assay: cell-surface Lgr5 expression (SCi1 fluorescence, background-subtracted) relative to WT DMSO (fold of DMSO control); higher = more Lgr5 at the plasma membrane
Conditions: U2OS MarsCy1-Lgr5-EGFP stable; treatment time: overnight; library: ActiProbe-5K (TimTec); 25 µM

| Structure (SMILES) | cell-surface Lgr5 expression |
| --- | --- |
| Clc1cc2nonc2c2nonc12 | inactive: 1.3 |
| CCCC[n+]1cc([NH-])on1.Cl | inactive: 1.04 |
| O=[N+]([O-])c1ccc(N2CCCC2)c2ncccc12 | inactive: 1.36 |
| Fc1ccc2c(C3CCNCC3)noc2c1 | inactive: 0.916 |
| Nc1n[nH]c(Cc2nc(N)n[nH]2)n1 | inactive: 1.53 |
| C/C(=C/c1ccc2c(c1)OCO2)[N+](=O)[O-] | inactive: 0.222 |
| O=[N+]([O-])c1ccc(N2CCNCC2)c2ncccc12 | inactive: 1.33 |
| CC12CC(=O)C3C(CCC4=CC(=O)CCC43C)C1CCC2=O (stereo not given) | inactive: 1.22 |
| Cl.Nc1cc2nc3ccccc3nc2cc1N | inactive: 1.47 |
| NNC(=O)c1nonc1N | inactive: 1.15 |
| c1(c(cc(cc1OC)/C=C(\C#N)C#N)OC)OC | inactive: 1.05 |
| N#C[C@@H]1CCC[C@H]2OC[C@@H](c3ccccc3)N12 | inactive: 0.85 |
| CN1CCC2(CC1)C(C#N)=C([S-])NC(=O)C2C#N (stereo not given) | inactive: 1.14 |
| CS(=O)(=O)NCCNC(=O)c1nonc1N | inactive: 1 |
| NCCC(=O)OCC1CCCN2CCCCC12 (stereo not given) | inactive: 0.901 |
| Nc1nc2nonc2n2nnnc12 | inactive: 1.39 |
| Oc1ccc(Br)cc1Cl | inactive: 1.13 |
| O=c1[nH]c2nonc2[nH]c1=O | inactive: 1.14 |
| Cc1oc2ccccc2c1-c1ccc2ccccc2n1.[O-][Cl+3]([O-])([O-])O | inactive: 1.13 |
| Cc1cc(C=O)c(C)n1C1CCCCC1 | inactive: 1.24 |
| S=C(SSC(=S)N1CCCCC1)N1CCCCC1 | inactive: 1.06 |
| O=C(/N=c1\[cH-][n+](C23CC4CC(CC(C4)C2)C3)no1)Nc1ccccc1 | inactive: 1.22 |
| Clc1ccc(Cl)c2c1N[C@@H](c1cccnc1)[C@@H]1CC=C[C@@H]21 | inactive: 1.2 |
| Nc1nc(N)nc(N)n1 | inactive: 1.02 |
| FC(F)(F)c1ccccc1C1NCc2ccccc2-n2cccc21 (stereo not given) | inactive: 1.17 |

| Structure (SMILES) | cell-surface Lgr5 expression |
| --- | --- |
| COCCCNC1CCN(C)CC1 | inactive: 1.15 |
| Nc1nonc1NC(=O)COC1CN2CCC1CC2 (stereo not given) | inactive: 1.02 |
| [Na][O]CC1CCCN2CCCCC12 (stereo not given) | inactive: 1.15 |
| NCCSc1c[nH]c2ccccc12 | inactive: 1.17 |
| c1(sc(C)cc1)/C=C(/C#N)C#N | inactive: 1.06 |
| CN1CCC2(CC1)C(C#N)=C(N)NC(S)=C2C#N | inactive: 0.995 |
| Cc1n[nH]c([N+](=O)[O-])c1[N+](=O)[O-] | inactive: 1.41 |
| C1CCC2NC3CCCCC3NC2C1 (stereo not given) | inactive: 0.954 |
| CN1CCc2c(c(N3CCCCC3)nc3[nH]nc(N)c23)C1 | inactive: 1.11 |
| N=C([NH3+])NC(=N)Nn1cnnc1.[Cl-] | inactive: 1.29 |
| COc1ccc(/C(C)=N/NC(=O)CSC2c3ccccc3-c3ccccc32)cc1OC | inactive: 1.96 |
| Fc1cc(C2NCc3ccccc3-n3cccc32)cc(F)c1F (stereo not given) | inactive: 1.16 |
| Br.NCCc1cc(O)c(O)cc1O | inactive: 0.964 |
| O=[N+]([O-])c1ccc(Cl)c2nonc12 | inactive: 1.53 |
| Nc1nn2c(O)c(N)c(=O)[nH]c2c1[N+](=O)[O-] | inactive: 1.26 |
| CN(C)c1ccc(N(C)C)cc1.O | inactive: 1.4 |
| O=c1[nH]c2cc(Cl)ccc2n1C1CCNCC1 | inactive: 1.02 |
| NC(=O)c1n[nH]cc1[N+](=O)[O-] | inactive: 1.2 |
| CN1CCC(N)C2CCCCC21 (stereo not given) | inactive: 1.19 |
| O.O.O=C(O)C1N=C2CC=CCC2N1 (stereo not given) | inactive: 1.18 |
| C1CCC(NC2CCCCC2)CC1.Cl | inactive: 1.29 |
| COc1cc2c(cc1OC)-c1c(OC)c(OC)c(N)c3c1[C@H](C2)N(C)CC3 | inactive: 1.04 |
| O=[N+]([O-])c1ccc(N2CCNCC2)cc1NC1CC1 | inactive: 1.19 |
| Fc1ccccc1C1NCCC2N=CNC21 (stereo not given) | inactive: 1.31 |
| Cc1cc(C=O)c(C)n1C(C)C | inactive: 1.24 |

3 entries from above in a different format:
Structure (SMILES)	cell-surface Lgr5 expression
C1CCC2NC3CCCCC3NC2C1 (stereo not given)	inactive: 0.954
CN1CCc2c(c(N3CCCCC3)nc3[nH]nc(N)c23)C1	inactive: 1.11
N=C([NH3+])NC(=N)Nn1cnnc1.[Cl-]	inactive: 1.29

(continued)

| Structure (SMILES) | cell-surface Lgr5 expression |
| --- | --- |
| c1ccc(N2CCNCC2)nc1 | inactive: 1.29 |
| COC(=O)Nc1no[n+]([O-])c1NC(=O)OC | inactive: 1.46 |
| Nc1ccc(OC(F)(F)Cl)cc1 | inactive: 1.07 |
| Nc1nnc(CCN2CCCCC2)s1 | inactive: 1.2 |
| c1ccc2c(c1)CNC(c1ccc3c(c1)OCO3)c1cccn1-2 (stereo not given) | inactive: 1.12 |
| Cl.c1ccc(Oc2ccc3[nH]cc(CCN4CC4)c3c2)cc1 | inactive: 1.2 |
| C1(/C(NC(=S)NC1=O)=O)=C/c1c(n(CCOC)c(c1)C)C | inactive: 0.759 |
| OCCCCNC1CCCCC1 | inactive: 1.13 |
| CC1(C)CN=C(Nc2ccc(OC(F)(F)F)cc2)S1 | inactive: 1.09 |
| CN1C(=O)N(C)C2C1N(C)C(=O)N2C (stereo not given) | inactive: 1.16 |
| Nc1n[nH]c(SCC(=O)Nc2nonc2N)n1 | inactive: 1.11 |
| O=[N+]([O-])/C=C/c1ccccc1C(F)(F)F | inactive: 1.13 |
| Nc1ncnc(N)n1 | inactive: 0.98 |
| Nc1nonc1-c1nnn[nH]1 | inactive: 1.04 |
| CN1CCc2[nH]c(=S)c(C#N)cc2C1 | inactive: 1.26 |
| CC(=O)C12N[C@@H]1CC1C3CC=C4C[C@@H](O)CCC4(C)C3CCC12C (stereo not given in full) | inactive: 1.35 |
| CNC(=O)N(C)c1nnc(C(C)(C)C)s1 | inactive: 1.12 |
| O=[N+]([O-])c1cnn(CCc2nn[nH]n2)c1 | inactive: 0.999 |
| Cl.[NH-]c1c[n+](C2CCCCC2)no1 | inactive: 1.23 |
| c1(cn(C)c2c1cccc2)/C=C(/C#N)C#N | inactive: 1.37 |
| CC1(C)C(C(=O)Nc2nccs2)C1(C)C | inactive: 0.97 |
| Fc1ccccc1C1NCc2ccccc2-n2cccc21 (stereo not given) | inactive: 1.24 |
| N#C/C(=C\c1ccc[se]1)C(N)=S | inactive: 1.31 |
| O=C(NC(=S)N1C[C@H]2C[C@@H](C1)c1cccc(=O)n1C2)c1cccs1 | inactive: 0.675 |
| Cc1cc(N=C=S)nn1C | inactive: 1.21 |
